This is an account of results in PubChem BioAssay AID1508600 (Functional Genomics Laboratory (NCATS/FGL), 2020).

About 3,700 (7%) of roughly 53,000 sequences were called active.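 The calls were made as follows: active = gene knockdowns whose robust z-score for IL-1 alpha signal is at least 2 or at most -2, so actives lie on both sides; inactive = the rest.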 The list shows a part of the results.

A short description of this test: Components of the Cytosolic LPS Sensing Pathway: Gene Identification via Genome-wide siRNA Screen.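 Also: robust z of the log signal after scaling to non-targeting control siRNA wells of the plate.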 The conditions noted are these: RAW264.7 macrophages, IL-1a HTRF, actives lie on both sides, screened at 100 nM (by protocol), cells primed 5 h with Pam3CSK4 first. Put shortly:
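Knockdown: 100 nM siRNA, 48h, RAW264.7. Stimulation: Pam3CSK4 5 h, then LipidA via TransIT-TKO 24 h. Output: supernatant IL-1a HTRF, negative-control-normalized, log robust z-score; viability by CellTiter-Glo.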
(In general: TR-FRET usually uses a lanthanide donor and a delayed reading to cut background.)
For the sequence GGCAAUUUGGAUACCAGGATT against Zfp24, the z-score was inactive: -0.563.

As to GCUUACCUGGUCUUGGGCATT against Dnajc30, the z-score is inactive: 0.348. Turning to GGUCUUCAACAACAUUAUCTT against Hid1, the z-score is inactive: 1.

As to GGUUACCAAAAAAAGAGUUTT against Xrn1, the z-score was inactive: 0.639. In the case of CCGUUUCCCUCUAAAGAAATT against Mphosph6, the z-score was inactive: 0.214.

Regarding GGUUGAAGGAGACAACAUUTT against Fzd6, the z-score was inactive: 0.626.

GCUACUCUUACAAGCAAUATT against Rnf111: the z-score was inactive: -0.368. As to GGAGUUAAAUACUGAGUUUTT against Csnk1g3, the z-score is inactive: 0.499. As for GGCAGUUUCAAUGAAAGAATT against Cnn2, the figure is inactive: 0.705.

In the case of GGAUAUAAACGGGUUAACATT against Ltbp1, the z-score is inactive: 0.297. Consider GUACUCUUCCUCACUGGGUTT against Tmem198, for which the z-score is inactive: 1.21. To GGUUAAAAGACUGAAUGAATT against Rabep2 belongs inactive: 0.134; to GGAUGAUUGUGUUUCGACUTT against Stoml1, inactive: 0.0827.

Turning to GGAUGAAGAGACUAAAAAUTT against Il23a, the z-score was inactive: 0.922. In the case of GCGAUGAUGAAAGCUCAGUTT against Atad1, the z-score is active: -2.36. In the case of GCUAUCAAGGGCAUGAUCCTT against Gabra3, the z-score was inactive: -0.89.

For GCGGCAAGUAUUAUUAUCATT against Cbx4, the z-score is inactive: -1.58. AGAGAGAUAUUGUUCAUCATT against Psg22: the z-score was inactive: 0.11. For GGAAAAACAGUUCUUGGAGTT against Apeh, the z-score is inactive: 0.466. For the sequence CCUGAUUAUUCUGAGAAAUTT against Adsl, the z-score was inactive: 1. Turning to CGGGAAUCCUCUGAAUUAATT against Pycr2, the z-score was inactive: 0.297.

Consider GGGAUCGAAUGGUUCAGGUTT against Osbpl9, for which the z-score was inactive: 0.646. To GCAGGUAGCUAAAGAAAACTT against Rangrf belongs inactive: 0.831.

On to GCAAACCACUUACACUAAUTT against Spry4, for which the z-score was inactive: -0.201.

With CCAGUCGACUACUAUGCCATT against Sstr1, the z-score is inactive: -0.161.

Take GGACGUAUAUCCUUUUAUGTT against Spaar: the z-score was inactive: -0.151.

On to GGCAACCCUGAAGACAGCUTT against Cys1, for which the z-score is inactive: 0.516. Turning to “GGCUGUGAUUGGCAAUCUATT against 6430548M08Rik”, the z-score was active: -3.04.

On to GGCAUUUUUACAGACCAGCTT against Apoc2, for which the z-score was inactive: -0.734. Regarding GGUCUGAGCUCUCAAAAUGTT against Neurod4, the z-score was inactive: -0.137. As for GGAUUAAAGGGUAACUUAGTT against Ccdc121, the figure is inactive: 0.441; as for CCAAAAGACCAUUGUCGUCTT against Nmrk1, inactive: 0.443. GGAAGAUGAAAUCUUCAAATT against Lysmd1: the z-score is inactive: -0.244. As to “GCGCAAAGGUGAAACGUAGTT against E030011O05Rik”, the z-score was inactive: -0.17.

Regarding GCUACCUGUGCAAGUGAACTT against Selenoh, the z-score is inactive: -0.402. In the case of CGGCUUCUUAGGAAACUCUTT against Olfr358, the z-score is inactive: -0.369. Turning to GCCUUUAAGAAGUUGAUGCTT against Olfr1015, the z-score is inactive: -0.0711. Take GGUUGAUUACAGCAUCGGGTT against Cops7a: the z-score was inactive: -0.466. In the case of GGGUUCGAGGAAAAGGAAGTT against Acsf3, the z-score is inactive: 0.65.

Turning to GGUUAAGCAGGAAAACAAGTT against Pygb, the z-score was inactive: -1.07. Regarding CGAAUUUGUAACACAUGGUTT against Tmeff1, the z-score is inactive: 1.41.

GGAGAAAGAAGGGAUUCUCTT against Ensa: the z-score is inactive: 0.419. Regarding GGAACAGUUACGAAAAGUGTT against Vps37c, the z-score was inactive: -1.03. With CCAACUGGCAUUUGAUGUGTT against Mical2, the z-score was inactive: -0.16. As for GGAUCCUGGUCCAAACUUUTT against Atraid, the figure is inactive: -1.52. With “GGUGUAUUCCAGUUACAAATT against 2610002M06Rik”, the z-score was inactive: 0.422. For GGUCCUAGGCCGAUUCGAUTT against Gpsm1, the z-score was inactive: 0.877. To CCUUUUCCCUAAUACGUAUTT against Pcyt1a belongs inactive: -0.25; to GCUAUGAUGUAGCCAGGACTT against Trnau1ap, inactive: -0.265. CGAGUGUGAUACGUACUUCTT against Jag1: the z-score is inactive: -0.46. For the sequence GCCCAUUAUAGGAAAGAACTT against Rhox12, the z-score is inactive: 0.27. For the sequence GGAAGAAGAAGAGAGAGAATT against Ccdc148, the z-score is inactive: -1.92. Turning to UAGCACCAUUUUUCAGAACTT against Ascc1, the z-score is inactive: 0.283. Take CCUUUGAGACAACCAGUCCTT against Entpd2: the z-score was inactive: 1.31. To GGGCGACACAAGGUUUUUGTT against Kif3a belongs active: 2.61; to UCAGAACCAUUUCUGUGCGTT against Pou4f1, inactive: 0.137; to CGAGAAUGUGUCUUCUUUATT against Trpm8, inactive: -0.0999.

As for GAAUGCGGCUGUAUGAGAATT against Crygc, the z-score was inactive: 0.404. To GGAGUGACUAACCCUCUAGTT against Ccnk belongs inactive: -0.529. On to GGAAUAUGCUGCAAAAAUCTT against Camk2g, for which the z-score was inactive: -1.58.

Regarding GGUUGCCAAUGACACUCGGTT against Trak2, the z-score is inactive: -0.342. Consider GGCUAGUACCAACAUGACCTT against Doxl1, for which the z-score was inactive: 1.14. In the case of CGAGAACUUAAAAUGGGAATT against Cd3e, the z-score was inactive: -0.475. Take GCUUUGAUGGAUUCUAAUCTT against Htt: the z-score is inactive: 1.09. For the sequence GGUUUUAGUAAACUUCCCATT against Fam76b, the z-score was inactive: -0.692.

Consider GCCUGAUGGACCAUGUUUATT against Slc9b2, for which the z-score is inactive: 0.369. As for GGUUGUCGUCAACAAGAGCTT against Krt72, the z-score is inactive: 1.96. In the case of GGAUGUGAUAUUAUAAAGGTT against Apba1, the z-score is inactive: -1.24.

Regarding GGUCAUGCUCAUCUUCUAUTT against Pigq, the z-score is inactive: -1.4. Regarding CCACCGGAAUGACAUAAUGTT against Klk11, the z-score is inactive: -0.578. Take GGCCUACAUGAACCAGAGATT against Bloc1s1: the z-score is inactive: -0.24. For the sequence GGAGGACUCCAAGACCUUCTT against Rcn1, the z-score was inactive: -0.599. For the sequence GCCCUUUCAUCAAUAAUGUTT against Slc12a7, the z-score was inactive: -0.113. As for GGCCCUUUAACACAUACCCTT against Pak4, the z-score was inactive: 0.00391. As to CGCGGUGUUCGACAUCUUGTT against Noc4l, the z-score was active: 2.12. To GGUCAGAGUCAUCAACUUATT against Asb8 belongs inactive: 0.721; to GGAUGAAGCAGAAGAAUAATT against Spg7, inactive: -0.131. Turning to GGGCAACAUGUUAUUCUACTT against Psg29, the z-score was inactive: -0.051. Regarding GCAUGUUUUACAGUGUUCATT against Rxfp1, the z-score was active: 2.7. Take GGUCUUGCUGAUCAACAACTT against Adgrb2: the z-score was active: 2.53.

Regarding GGAGUUAAAUCCCAAACACTT against Scgb2b24, the z-score is inactive: 0.896. As to GGGUGGAGUAUUUUUCUUGTT against Ube2d2a, the z-score was inactive: 0.0678. With “GGAAAGAGGGUUUAUUUUGTT against 4930556L07Rik”, the z-score was inactive: 0.919. As for CCCUUGCUACAAUGAUGCCTT against Mfge8, the z-score is active: 2.56. As to CGUGGACAUCGAUAUCACCTT against Slc26a8, the z-score is inactive: -0.737. For GGAAAAACUACAUGGUAAATT against Ttll9, the z-score was inactive: 0.154.

As for GGUGCUGAUGAAGUUCAUGTT against Ap1b1, the z-score is inactive: 1.47. As for GGGAAACAGUGAAAAGUUCTT against Mblac1, the figure is inactive: -0.945; as for GGUUGUGUCUUCUUUUCUCTT against Cenph, inactive: 0.392. For GGAUAUUCCUGCUGUCACCTT against Dmrt1, the z-score is inactive: -1.67. For GGAUGGUUAUGUGUGGAGUTT against Socs4, the z-score is inactive: 0.528. To CCUCCACUGCUUUUGUCUATT against Olfr1436 belongs inactive: 0.114; to GGAGUGUUGGAUGCUACCATT against Ache, inactive: -1.12; to GCUCUUGAUGUUUAGAGUUTT against Usp17lf, inactive: 0.345. Regarding GCACACCUAUGUCCACUCUTT against Aars, the z-score is inactive: -0.923.

Take CCAUGGAGUCUGGUUUCCUTT against Olfr591: the z-score was inactive: -0.668. As to GCACUUCACACUUAGGGUGTT against Tmem132e, the z-score is inactive: -1.16. With “CCCAGUAUCCCAUAACCCATT against 1700022I11Rik”, the z-score is inactive: -1.17.

Consider GGAGACUUCUUUUUUGACATT against Myo7b, for which the z-score is inactive: 0.63. Take GGAAAUUUGUAUCCCGAGUTT against Trp53: the z-score is active: -2.14. In the case of CCCUAUCUCAAGGAAUAAATT against Pcyox1, the z-score is inactive: -1.38.

Take GGACCAAGGCUUGGAUCUUTT against Magea6: the z-score is inactive: 0.527. To GAAUUUGCCAUUUUCAGUGTT against Cox7c belongs inactive: 0.471; to GGAGAAUCAGGGUAGCACATT against Txnl4a, inactive: -0.52. As for GGAAUAAAUAUUCCUCCUATT against Dis3, the z-score was inactive: 0.318. Consider GGAAAAGUUGAGGUUAUCATT against Ggt1, for which the z-score was inactive: -0.538.

Regarding GGUUUACAUCCAUUGGCAATT against Tlnrd1, the z-score is inactive: 0.0774.
